± gives the standard deviation of the averaged measurements. The list shows a part of the results. Repeats are few or missing, and single values can be far off.
Each compound was assayed on RAW 264.7 macrophages infected with S. aureus JE2-lux (assay: host macrophage viability (CellTiter-Fluor) relative to DMSO vehicle; higher = more viable host cells). Conditions: 10 µM; treatment time 4 h; gentamicin 50 µg/ml.
Work on O=C(Cc1ccc(F)cc1)Nc1nnc(-c2ccccc2)[nH]1 yielded a host macrophage viability of 115%. In the case of C=CCNC(=O)Cn1c(C)c(Cc2ccccc2)c(=O)n2nc(-c3ccc(C)cc3)nc12, the host macrophage viability is reported as 111%. Compound O=C(c1ccccc1F)N1CCc2cc(-c3csc(-c4cccnc4)n3)ccc21 has a host macrophage viability of 117%. COc1cc2ccccc2cc1C(=O)Nc1nnc(-c2ccncc2)o1 was tested, and the host macrophage viability was 110%. CCOC(=O)c1c(NC(=O)C2CC(=O)NN2Cc2ccccc2)sc2c1CCC2 (stereo not drawn) gave a host macrophage viability of 115%. For CCOC(=O)N1CCN(C(=O)CSc2ncnc3ccccc23)CC1, the host macrophage viability was 113 ± 7.4%. O=C(NCC(c1cccs1)S(=O)(=O)c1ccccc1)Oc1ccccc1 (stereo not drawn) was tested, and the host macrophage viability was 123%. O=C(O)CC1C(=O)NCCN1Cc1cccc(C(F)(F)F)c1 (stereo not drawn) showed a host macrophage viability of 132%. COC(=O)c1c(NC(=O)c2ccc(C#N)cc2)sc2c1CC(C)(C)NC2(C)C showed a host macrophage viability of 146%. With Cc1nc2ccc3nc(NC(=O)c4sc5ccccc5c4Cl)sc3c2s1 the host macrophage viability was 144%. Compound Cc1ccc(-n2c(C)cn3c4c(=O)n(CC(N)=O)c(=O)n(C)c4nc23)cc1 has a host macrophage viability of 118%. O=c1[nH]c(NNC(=S)Nc2ccccc2)nc2sc3c(c12)CCCC3 showed a host macrophage viability of 104%. O=C(O)c1ccc2c(c1)C(=O)N(Cc1ccc3c(c1)OCO3)C2=O gave a host macrophage viability of 129%. With Cc1ccc(-c2nnn3c2[nH]c(=O)c2cc(Cl)ccc23)cc1 the host macrophage viability was 116%. O=C(NCCCc1ccccc1)c1c(O)nc2sccn2c1=O showed a host macrophage viability of 102%. Nc1c(C(=O)NC2CCCCC2)sc2nc3c(cc12)C(=O)CCC3 showed a host macrophage viability of 111%. With CCOC(=O)c1ccc2nc(NC(=O)Cc3cccc4ccccc34)sc2c1 the host macrophage viability was 118%. Compound Cn1c(=O)c2cc(C(=O)Nc3nccs3)sc2n(C)c1=O has a host macrophage viability of 93.2%. For CC1=C(C(=O)Nc2ccc(Br)cc2)C(c2ccc(C(C)C)cc2)NC(=O)N1 (stereo not drawn), the host macrophage viability was 101%. With COc1ccc(C(=O)CSc2nc(COc3ccccc3)nc3ccccc23)cc1 the host macrophage viability was 99.7%. For Cc1cc(NC(=O)CSC2=NS(=O)(=O)c3ccccc3N2)[nH]n1, the host macrophage viability was 118%. For COc1cc2ncc(C(=O)NCc3cccnc3)c(O)c2cc1OC, the host macrophage viability was 109%. CN1C(=O)c2cccc(NC(=O)c3ccc(S(=O)(=O)N(C)CC4CCCO4)cc3)c2C1=O (stereo not drawn) gave a host macrophage viability of 130%. In the case of COc1ccc(C(=O)Nc2nc3c(cc4c5c(cccc53)CC4)s2)c(OC)c1, the host macrophage viability is reported as 111 ± 9.1%. Work on O=C(NC1CCCCC1)C(c1ccc2ncccc2c1)N(C(=O)c1cccs1)c1ccc(F)cc1 (stereo not drawn) yielded a host macrophage viability of 123%. Compound O=C(O)c1cccc(S(=O)(=O)/N=C2/C=C(NS(=O)(=O)c3ccccc3)C(=O)c3ccccc32)c1 has a host macrophage viability of 80.7%. In the case of COc1ccc(O)c(NS(=O)(=O)c2ccc3c(c2)NC(=O)CO3)c1, the host macrophage viability is reported as 99.7%. Work on Cc1ccc(NC(=O)CC2C(=O)Nc3ccccc3N2C(=O)c2ccc(Br)cc2)cc1C (stereo not drawn) yielded a host macrophage viability of 119%. CC[C@@H](Cn1ncc2ccccc2c1=O)NC(=O)c1ccc2c(c1)n(C)c(=O)n2C was tested, and the host macrophage viability was 121%. O=C(CSc1ncnc2c1oc1ccccc12)NCCc1ccccc1 was tested, and the host macrophage viability was 124%. Cc1cc(C)c(NC(=O)CS(=O)CC(=O)NC2CCS(=O)(=O)C2)c(C)c1 (stereo not drawn) gave a host macrophage viability of 113%. For Cc1ccc(-c2c(C(F)(F)F)nn3c(N4CCN(c5ccccn5)CC4)cc(C)nc23)cc1, the host macrophage viability was 102%. In the case of NC(=O)c1ccsc1NC(=O)CCSc1ccc(F)cc1, the host macrophage viability is reported as 120%. Compound CCOC(=O)c1cc(NC(=O)Nc2ccc(I)cc2)c(C)nc1C has a host macrophage viability of 121%. Cc1ccccc1-c1ncccc1C(=O)N1CCC(C(=O)NC2CCCCCC2)CC1 gave a host macrophage viability of 104%. In the case of O=C(CCN1CCCCC1)Nc1c(-c2ccccc2)c2cc(Br)ccc2[nH]c1=O, the host macrophage viability is reported as 126%. For O=C(Nc1ccccc1Cl)C1CCN(c2c3c(nc4ncnn24)CCC3)CC1, the host macrophage viability was 88.4%. COc1ccccc1CNC(=O)C(=O)NCC1OCCN1C(=O)c1ccc2c(c1)OCO2 (stereo not drawn) was tested, and the host macrophage viability was 109%. In the case of Cc1nc(-c2cccs2)c(CC(=O)Nc2ccc(Br)cc2)s1, the host macrophage viability is reported as 118%. With Cc1cccc2c(O)c(C(=O)N3CCC(C)CC3)cnc12 the host macrophage viability was 114%. COc1cccc(CNC(=O)Cn2cnc3onc(-c4ccc(Cl)cc4)c3c2=O)c1OC gave a host macrophage viability of 139%. CC(NC(=O)CCCc1nnc2c(=O)n(-c3ccc(Cl)cc3)ccn12)c1ccccc1 (stereo not drawn) was tested, and the host macrophage viability was 140%. Work on CC(Sc1nc2ncccc2o1)C(=O)N1CCCc2ccccc21 (stereo not drawn) yielded a host macrophage viability of 111%. Cc1cc(C)cc(-n2ncc3c(N4CCN(c5ccc(F)cc5)CC4)ncnc32)c1 showed a host macrophage viability of 101%. For Cc1cccc(-c2nc(NC(=O)C(C)Oc3ccccc3Cl)no2)c1 (stereo not drawn), the host macrophage viability was 105%. CN(C)/C=N/c1c(C#N)cnn1-c1ncnc2sc(-c3ccccc3)cc12 gave a host macrophage viability of 134%. With CCc1nc2ccc(NC(=O)c3cc(-c4ccccn4)n[nH]3)cc2[nH]1 the host macrophage viability was 112%. In the case of Cc1ccccc1-c1nc(NC(=O)COc2ccc(C(C)C)cc2)no1, the host macrophage viability is reported as 106%. O=C(CSc1nc2c(oc3ccccc32)c(=O)n1CC1CCCO1)Nc1ccccc1F (stereo not drawn) was tested, and the host macrophage viability was 121%. CCOc1ccccc1/C=N/NC(=O)CNC(=O)c1ccc(S(=O)(=O)N(CC)CC)cc1 gave a host macrophage viability of 125%. With O=C(Nc1ncc(S(=O)(=O)c2ccc([N+](=O)[O-])cc2)s1)c1cccc(F)c1 the host macrophage viability was 103%. N#Cc1cc2cc3c(cc2nc1SCC(=O)N1CC(=O)Nc2ccccc21)OCO3 gave a host macrophage viability of 139%. CCCN1C(SCC(=O)Nc2ccccc2C(=O)OCC)=NS(=O)(=O)c2ccccc21 gave a host macrophage viability of 104%. With Cc1cc(-c2csc(S(=O)(=O)N3CCOCC3)c2)on1 the host macrophage viability was 119%. In the case of Cc1cc(C)n(-c2cc(NCC(C)c3ccccc3)ncn2)n1 (stereo not drawn), the host macrophage viability is reported as 121%. O=C(CSc1nncc(=O)[nH]1)Nc1ccc2c(c1)OCO2 gave a host macrophage viability of 110%. Cc1ccc(NC2SC(=O)N(CC(=O)O)C2=O)cc1 (stereo not drawn) was tested, and the host macrophage viability was 120%. COc1ccc(C(NC(=O)c2nnn(-c3ccccc3)c2C)c2ccncc2)cc1 (stereo not drawn) showed a host macrophage viability of 101%. For CCc1cc(-c2csc(S(=O)(=O)Nc3ccc(F)c(Cl)c3)c2)on1, the host macrophage viability was 107%. Work on O=C(CCC1CCCCC1)NCc1n[nH]c(=O)c2ccccc12 yielded a host macrophage viability of 119%. With CC1CCCCN1Cc1nc2c([nH]1)c(=O)n(C)c(=O)n2C (stereo not drawn) the host macrophage viability was 100%. With C=CCOc1ccccc1/C=C1/SC(N2CCN(C)CC2)=NC1=O the host macrophage viability was 123%. Work on O=C(NCc1ccc2c(c1)OCO2)C(=O)NCC(c1ccco1)N1CCN(c2ccccc2)CC1 (stereo not drawn) yielded a host macrophage viability of 111%. CC(=O)NC1(c2ccccc2F)CCN(Cc2cc3ccccc3nc2N(C)C)CC1 was tested, and the host macrophage viability was 121%. For O=C(Nc1cccc(NC(=O)c2ccccn2)c1)c1ccc2nccnc2c1, the host macrophage viability was 121%. N#CC1=C(N)OC2=C(C(=O)CCC2)C1c1ccco1 (stereo not drawn) showed a host macrophage viability of 111%. O=C(Nc1ccc2ncsc2c1)c1cc2ccccc2oc1=O showed a host macrophage viability of 120%. In the case of Cc1nc2c(C(=O)NCc3cccnc3)cnn2c(O)c1Cc1ccc(F)cc1Cl, the host macrophage viability is reported as 115%. Work on Cc1[nH]c2nc(N(Cc3ccc(Cl)cc3)C(=O)CCc3ccccc3)nn2c(=O)c1C yielded a host macrophage viability of 116%. With Cc1ccc(Cc2nnc(-c3cc(NC(=O)Nc4ccc5c(c4)OCCO5)ccc3F)o2)cc1 the host macrophage viability was 111%. O=C(N1CCC(n2nc(C3CC3)ccc2=O)CC1)C1(c2ccccc2)CC1 showed a host macrophage viability of 101%. With CC[C@@H](Cn1nc(-c2ccc(F)c(F)c2)ccc1=O)NC(=O)Cc1ccccc1F the host macrophage viability was 128%. For Cc1nc2cc(-c3noc(CNS(=O)(=O)c4ccccc4)n3)ccc2n(C2CCCC2)c1=O, the host macrophage viability was 118%. Work on CCN1CCC(CCc2ccc(NC(=O)c3cccc4c3C(=O)N(C)C4)cc2)C(C)C1 (stereo not drawn) yielded a host macrophage viability of 101%. In the case of CC1=NN(Cc2ccc(C)cc2)c2nc3c(c(=O)n(C)c(=O)n3C)n2C1, the host macrophage viability is reported as 110%. In the case of COc1ccc(CCNC(=O)C2CCCN2C(=O)Nc2ccc(F)cc2)cc1OC (stereo not drawn), the host macrophage viability is reported as 125%. For Cc1nc(N2CCN(C(=O)c3ccco3)CC2)c2nnn(Cc3ccccc3)c2n1, the host macrophage viability was 98.8%. Work on COc1cc(Nc2ncc3c(n2)CCN(S(=O)(=O)c2cccc4nsnc24)C3)cc(OC)c1 yielded a host macrophage viability of 122%. In the case of Cc1cc(NC(=O)c2c3c(nc4ccccc24)C(=O)N(C2CCCCC2)C3)no1, the host macrophage viability is reported as 130%. O=C1NC(c2ccc(Cl)cc2)c2c1oc1ccccc1c2=O (stereo not drawn) gave a host macrophage viability of 135%. CC(=O)Cc1nsc(NC(=O)c2ccoc2COc2ccc(C)cc2)n1 showed a host macrophage viability of 133%. C=CCn1c(=O)c2c3c(sc2n2c(Nc4ccccc4)nnc12)CCCC3 gave a host macrophage viability of 118%. COc1cccc2cc(C(=O)NCc3ccc4c(c3)OCO4)c(=O)oc12 was tested, and the host macrophage viability was 108%. With CC(=O)Nc1ccc2nc(NC(=O)C(C)NS(=O)(=O)c3ccc(C)cc3)sc2c1 (stereo not drawn) the host macrophage viability was 108%. For CCOc1ccccc1-c1cc(C(=O)Nc2ccc3c(c2)nc(CC)n3C)[nH]n1, the host macrophage viability was 116%. In the case of Cc1oc(-c2ccno2)cc1S(=O)(=O)N1c2ccccc2CC1C (stereo not drawn), the host macrophage viability is reported as 99.7%. O=C(CCn1c(=S)[nH]c2ccccc2c1=O)N1CCOCC1 gave a host macrophage viability of 131%. Cc1ccc(-n2ccnc(NCCC(C)C)c2=O)cc1Cl showed a host macrophage viability of 130%. In the case of CCOc1ccc(NC(=O)Cn2nnc(C(=O)Nc3ccccc3F)c2N)cc1, the host macrophage viability is reported as 107%. Work on COc1cccc(NC(=S)Nc2c(C)n(C)n(-c3ccccc3)c2=O)c1 yielded a host macrophage viability of 117%. Nn1c(SCc2ccccc2)nnc1-c1ccco1 was tested, and the host macrophage viability was 104%. With COc1ccc([N+](=O)[O-])cc1NC(=O)CCS(=O)(=O)c1ccc(F)cc1 the host macrophage viability was 114%. O=C1C=C(Nc2ccc(Cl)cc2)C(=O)N1c1cccc(C(F)(F)F)c1 gave a host macrophage viability of 130%. Work on Cc1ccc(-n2ccnc2SCc2nc(-c3ccc(Cl)cc3)no2)cc1 yielded a host macrophage viability of 67.7%. COc1cccc2sc(NC(=O)c3coc4ccccc4c3=O)nc12 gave a host macrophage viability of 102 ± 7.6%. Work on O=C(CCCS(=O)(=O)c1ccccc1)Nc1nc2ccc([N+](=O)[O-])cc2s1 yielded a host macrophage viability of 117%. Cc1ccc2cc3c(nc2c1)sc1c(SCC(=O)NCc2ccccc2)ncnc13 gave a host macrophage viability of 129%. For Cn1c(SCC(=O)NCCCc2ccccc2)nc2c(-c3ccccc3)csc2c1=O, the host macrophage viability was 126%. CC1(C(=O)Nc2ncc(Cc3cccc(C(F)(F)F)c3)s2)Cc2ccccc2C(=O)O1 (stereo not drawn) was tested, and the host macrophage viability was 127%. Compound CCc1ccccc1NC(=O)Cc1c(C)nn(-c2nc(-c3ccc(C)cc3)cs2)c1O has a host macrophage viability of 122%. In the case of COc1cccc(NC(=O)Cn2c(C)cc(=O)n3nc(-c4ccccc4C)nc23)c1, the host macrophage viability is reported as 118%. O=C(CC1Nc2ccccc2NC1=O)Nc1ccc(N2CCCCC2)cc1 (stereo not drawn) was tested, and the host macrophage viability was 113%. Cc1cc(NC(=O)NCCCSc2nnc(C)s2)no1 showed a host macrophage viability of 106%.
